PubChem BioAssay AID504774 – Drosophila RNAi Screening Center, 2011
The screen tested about 23,000 reagents; this is a random part of those that have a named target and a result. 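Values are quantile-normalised luminescence on an arbitrary scale; higher means more cells surviving MMS.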 Names joined by + are all predicted targets of the reagent.

Test: 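Fly genes whose loss alters survival after alkylation damage to DNA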 (primary screen)
Cell system: Drosophila Kc167 cells
Reagent: long dsRNA against Drosophila genes, about 0.25 µg dsRNA per well
Duration: about 6 days: 3 days knock-down, then 3 days with or without MMS
Treatment: methyl methanesulphonate 0.004% (w/v) for 3 days after knock-down
Read-out: 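Viability in wells given MMS, read as ATP luminescence, normalised by quantiles plate by plate and averaged across replicates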
Direction: mean viability with MMS and viability with MMS: higher = more surviving cells after MMS

The opening 5 entries, to show the layout:
gene	dsRNA	mean viability with MMS	viability with MMS, replicate 1	viability with MMS, replicate 2
Cbp53E (GeneID 36905)	DRSC07356	3.44e6	3.91e6	3.91e6
Gr64b (GeneID 117480)	DRSC08444	3.58e6	4.02e6	4.07e6
c(3)G (GeneID 47765)	DRSC15245	3.45e6	3.94e6	3.90e6
CG10494 (GeneID 37453)	DRSC04072	3.61e6	3.98e6	4.10e6
CG8366 (GeneID 36754)	DRSC07153	3.44e6	3.84e6	3.93e6

The list itself, repeating the preview:
gene	dsRNA	mean viability with MMS	viability with MMS, replicate 1	viability with MMS, replicate 2
Cbp53E (GeneID 36905)	DRSC07356	3.44e6	3.91e6	3.91e6
Gr64b (GeneID 117480)	DRSC08444	3.58e6	4.02e6	4.07e6
c(3)G (GeneID 47765)	DRSC15245	3.45e6	3.94e6	3.90e6
CG10494 (GeneID 37453)	DRSC04072	3.61e6	3.98e6	4.10e6
CG8366 (GeneID 36754)	DRSC07153	3.44e6	3.84e6	3.93e6
CSN6 (GeneID 42661)	DRSC16593	3.36e6	3.79e6	3.74e6
Taldo (GeneID 37804)	DRSC04320	3.72e6	4.28e6	4.22e6
CG12204 (GeneID 32937)	DRSC19442	3.64e6	4.21e6	4.08e6
Mes2 (GeneID 40514)	DRSC11593	3.04e6	3.72e6	3.79e6
Mes2 (GeneID 40514)	DRSC11632	3.34e6	3.74e6	3.79e6
CG1677 (GeneID 31662)	DRSC18116	3.19e6	3.64e6	3.55e6
CG14960 (GeneID 38403)	DRSC08419	3.63e6	3.99e6	4.19e6
Nup160 + RfC38	DRSC01997	3.44e6	3.90e6	3.85e6
CG6333 (GeneID 39953)	DRSC10626	3.59e6	4.14e6	3.99e6
BORCS7 + CG13430	DRSC06392	3.60e6	4.12e6	4.05e6
BORCS7 + CG13430	DRSC06707	3.40e6	3.72e6	4.00e6
CG15432 (GeneID 33647)	DRSC00447	3.25e6	3.61e6	3.62e6
CG17470 (GeneID 35321)	DRSC02621	3.23e6	3.62e6	3.63e6
CG1161 (GeneID 40638)	DRSC12180	3.12e6	3.65e6	3.65e6
tun (GeneID 36743)	DRSC05592	3.47e6	3.97e6	3.94e6
tun (GeneID 36743)	DRSC07127	3.67e6	4.19e6	4.13e6
Acbp2 (GeneID 38784)	DRSC11141	3.62e6	3.88e6	4.34e6
CG11475 (GeneID 37513)	DRSC04113	3.61e6	4.28e6	3.84e6
mRpL22 (GeneID 32662)	DRSC19915	3.54e6	4.03e6	4.01e6
CG18131 (GeneID 33331)	DRSC00517	3.07e6	3.53e6	3.53e6
CG18131 (GeneID 33331)	DRSC22983	3.57e6	4.01e6	4.11e6
Archease (GeneID 42551)	DRSC16025	3.93e6	3.95e6	5.06e6
CG14422 (GeneID 31286)	DRSC17919	3.46e6	3.94e6	3.92e6
Drsl4 (GeneID 317954)	DRSC08034	3.56e6	4.04e6	4.03e6
VepD (GeneID 117331)	DRSC22318	3.49e6	3.92e6	4.01e6
CG1801 (GeneID 33104)	DRSC20556	3.42e6	3.82e6	3.93e6
CG1703 (GeneID 32112)	DRSC19764	3.63e6	3.95e6	4.43e6
CG17567 (retired record) (GeneID 50468)	DRSC02627	3.72e6	4.20e6	4.17e6
CG17567 (retired record) (GeneID 50468)	DRSC22537	3.67e6	4.11e6	4.13e6
HLH54F (GeneID 37027)	DRSC07438	3.60e6	4.09e6	4.07e6
CG10970 (GeneID 31830)	DRSC17772	3.59e6	3.99e6	4.19e6
CG11396 (GeneID 40296)	DRSC11654	3.66e6	4.09e6	4.17e6
CG4382 (GeneID 34279)	DRSC02743	3.67e6	4.20e6	4.13e6
Megf8 (GeneID 34099)	DRSC03058	3.68e6	4.20e6	4.18e6
CG42843 (retired record) (GeneID 10178904)	DRSC01118	3.66e6	4.08e6	4.18e6
CG42843 (retired record) (GeneID 10178904)	DRSC02231	3.64e6	4.07e6	4.19e6
CG42843 (retired record) (GeneID 10178904)	DRSC02233	3.60e6	4.11e6	4.06e6
CG42633 (GeneID 8674052)	DRSC16061	3.47e6	3.94e6	3.95e6
Max (GeneID 40095)	DRSC11218	3.49e6	4.03e6	3.87e6
NimB5 (GeneID 34815)	DRSC01885	3.60e6	4.12e6	4.04e6
CG15522 (GeneID 43546)	DRSC15059	3.38e6	3.80e6	3.79e6
